No constants are given. Whether binding was seen depends on the method and setting. Some entries that bind do so weakly or less than the wild type. Where a sequence is shown, tags or fusion partners need not be part of it.

Sequences of proteins named here, by UniProt entry; tags and fusion partners are left off. Residues count along the entry.
UniProt O65934, residues 46-142: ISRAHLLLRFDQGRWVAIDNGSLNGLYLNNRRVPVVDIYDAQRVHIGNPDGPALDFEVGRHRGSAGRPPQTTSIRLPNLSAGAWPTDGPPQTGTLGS

The assay concerns the target T1, Mycobacterium tuberculosis universal stress protein Rv2623, GAL4 DNA-binding domain fusion (pGBKT7::Rv2623) (M. tuberculosis) (UniProt P9WFD7).
T1 sequence: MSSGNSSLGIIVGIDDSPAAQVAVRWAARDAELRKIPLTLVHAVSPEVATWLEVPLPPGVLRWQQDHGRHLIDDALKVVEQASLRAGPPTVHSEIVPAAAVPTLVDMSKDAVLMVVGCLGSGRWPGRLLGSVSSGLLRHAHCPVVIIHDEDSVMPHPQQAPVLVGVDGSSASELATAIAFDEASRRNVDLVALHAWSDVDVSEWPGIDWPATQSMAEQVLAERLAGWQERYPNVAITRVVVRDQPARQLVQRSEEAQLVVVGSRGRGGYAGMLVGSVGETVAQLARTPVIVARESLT
Nature of the assay: two-hybrid.

Regarding “Rv1747 fragment spanning amino acids 46 to 142, GAL4 activation domain fusion (library prey) (from UniProt O65934 46-142) (domain or fragment)”, the binding result was “binds”.

(Values after paper PMC5549992.)
